Structures can show the parent of a compound that is named as a salt. The list shows a part of the results. Single values are uncertain here, since repeats match poorly.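 Human kidney-derived cells stably carry a construct in which eight TEAD-binding elements drive luciferase, measured by luminescence in a drug-repurposing library screen. A hit is any compound whose signal exceeds the plate mean by more than five robust Z scores.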
System: HEK293A TEAD-LUC reporter
Assay: TEAD-luciferase reporter activity (YAP activation), robust Z score vs plate; higher = stronger YAP/TEAD activation
Conditions: 24 h

| SMILES | TEAD-luciferase reporter activity (compound concentration: 200 nM) | TEAD-luciferase reporter activity (compound concentration: 2 uM) | TEAD-luciferase reporter activity (compound concentration: 10 uM) |
| --- | --- | --- | --- |
| COC[C@H](C)Oc1cc(Oc2cnc(C(=O)N3CCC3)cn2)cc(C(=O)Nc2cc(C)on2)c1 | inactive: -0.15 | inactive: 1.89 | inactive: -0.777 |
| CC(C)NC(=N)NC(=N)Nc1ccc(Cl)c(Cl)c1 [Chlorproguanil hydrochloride] | inactive: 0.048 | inactive: -1.54 | inactive: -1.09 |
| Cc1c[n+]([O-])ccc1CC(c1ccc(C(O)(C(F)(F)F)C(F)(F)F)cc1)c1ccc(OC(F)F)c(OC(F)F)c1 (stereo not drawn) | inactive: 0.485 | inactive: -0.405 | inactive: 0.777 |
| C[C@]12C=CC(=O)C=C1CC[C@@H]1[C@@H]2[C@@H](O)C[C@@]2(C)[C@H]1CC[C@]2(O)C(=O)COC(=O)c1cccc(S(=O)(=O)[O-])c1 [Predocol] | inactive: -0.446 | inactive: 4.1 | inactive: -0.351 |
| O=C([C@@H]1CCc2nc[nH]c2C1)N1CCc2ccccc21 | inactive: -0.554 | inactive: -0.737 | inactive: 0.867 |
| CN(C)CCO[C@]1(c2ccccc2)C[C@H]2CC[C@]1(C)C2(C)C | inactive: -0.0186 | inactive: -0.134 | inactive: -0.348 |
| O=S(=O)(c1ccccc1)c1cnc2c(N3CCNCC3)cccc2c1 | inactive: -1.21 | inactive: -0.394 | inactive: 0.783 |
| CCCCOC(=O)c1ccccc1Nc1cccc(C(F)(F)F)c1 [Ufenamate] | inactive: -0.167 | inactive: -1.04 | inactive: -0.383 |
| CN(Cc1cc(Br)cc(Br)c1NC(=O)[C@H](CSSC[C@H](NC(=O)OCc1ccccc1)C(=O)Nc1c(Br)cc(Br)cc1CN(C)C1CCCCC1)NC(=O)OCc1ccccc1)C1CCCCC1 [Cistinexine] | inactive: -0.61 | inactive: 0.951 | inactive: -0.86 |
| CCc1nc(N)nc(N)c1OCCCOc1ccccc1CCC(=O)O | inactive: -1.16 | inactive: -0.947 | inactive: -1.53 |
| CS(=O)(=O)CCC#N [Dapansutrile] | inactive: -1.1 | inactive: 0.52 | inactive: -1.27 |
| O=[N+]([O-])OC[C@H]1O[C@@H](n2cnc3c(NC4CCCC4)ncnc32)[C@H](O)[C@@H]1O [trabodenoson] | inactive: -1.45 | inactive: -1.32 | inactive: -0.705 |
| CNCCCC1(c2ccccc2)SC(C)(C)c2ccccc21 (stereo not drawn) | inactive: 0.707 |  | inactive: 1.42 |
| C[n+]1ccn(CC(O)c2ccc(NS(C)(=O)=O)cc2)c1 (stereo not drawn) | inactive: -0.735 | inactive: -0.635 | inactive: 0.0756 |
| Cn1c(=O)c2[nH]c(Br)nc2n(C)c1=O | inactive: -2 |  | inactive: -0.314 |
| Cn1c(=O)c2[nH]c(Br)nc2n(C)c1=O [Bromotheophylline] |  | inactive: -0.924 |  |
| Cc1cc(C)c2c3ccccc3n(Cc3ccc(C(C(=O)N[C@@H](CO)c4ccccc4)C4CCCC4)cc3)c2n1 (stereo partly drawn) [implitapide] | inactive: 0.147 | inactive: 1.54 | inactive: -0.225 |
| Cc1cc(S(N)(=O)=O)ccc1NC(=O)COc1ccc(Cl)cc1C(=O)c1cccc(C#N)c1 | inactive: -0.361 | inactive: -1.73 | inactive: 0.29 |
| Nc1nc(O)c2ncn(CCC(CO)CO)c2n1 [penciclovir] |  | inactive: -0.0862 |  |
| CCOC(=O)C1CCN(c2nc(N(C)S(=O)(=O)c3ccc(Cl)cc3)ccc2[N+](=O)[O-])CC1 | inactive: -0.0242 | inactive: 1.18 | inactive: 0.856 |
| CC(C)C(=O)c1ccc(O)c(O)c1 | inactive: -0.496 | inactive: -1.3 | inactive: -0.441 |
| C[C@]12CC[C@@H]3c4ccc(OS(N)(=O)=O)cc4CC[C@H]3[C@@H]1CC[C@@H]2O | inactive: -1.22 | inactive: 1.25 | inactive: -1.06 |
| CC1(c2ccc(O)cc2)C(=O)c2c(N3CCNCC3)cc(Cl)cc2N(Cc2ccccc2)C1=O (stereo not drawn) | inactive: -0.255 | inactive: -0.456 | inactive: 0.536 |
| CCCCCCCCCC1OCCO1 [SEPA absorption enhancers] | inactive: -0.562 | inactive: 0.492 | inactive: -0.572 |
| Cc1c(F)cccc1CCCCOc1ccc(C#Cc2ccc(F)c3c(CCCC(=O)O)c(C)n(CCCC(=O)O)c23)cc1 [Gemilukast] | inactive: 0.42 | inactive: -0.487 | inactive: 0.432 |
| CC(C)Cc1sc(N)nc1-c1ccc(P(=O)(O)O)o1 | inactive: -0.8 | inactive: 1.16 | inactive: -0.874 |

As entered above.
In TEAD-luciferase reporter activity (compound concentration: 2 uM), CS(=O)(=O)CCC#N [Dapansutrile] is entered as inactive: 0.52
In TEAD-luciferase reporter activity (compound concentration: 200 nM), CN(C)CCO[C@]1(c2ccccc2)C[C@H]2CC[C@]1(C)C2(C)C is entered as inactive: -0.0186
In TEAD-luciferase reporter activity (compound concentration: 10 uM), CC(C)C(=O)c1ccc(O)c(O)c1 is entered as inactive: -0.441

More results follow:

| SMILES | TEAD-luciferase reporter activity (compound concentration: 200 nM) | TEAD-luciferase reporter activity (compound concentration: 2 uM) | TEAD-luciferase reporter activity (compound concentration: 10 uM) |
| --- | --- | --- | --- |
| CNC(=O)c1c(I)c(C(=O)NCC(=O)Nc2c(I)c(C(=O)O)c(I)c(C(=O)NCCO)c2I)c(I)c(N(C)C(C)=O)c1I [Ioxaglic Acid] | inactive: -1.5 | inactive: 0.883 | inactive: 0.132 |
| O=c1[nH]c(=O)n([C@@H]2O[C@H](CO)[C@@H](O)[C@@H]2F)cc1I [fialuridine] | inactive: 3.81 | inactive: -0.257 | inactive: 0.74 |
| COc1cccc2c1CC(N)CS2 (stereo not drawn) | inactive: -0.523 | inactive: -0.643 | inactive: -0.649 |
| CC(C)(C)c1cc(/C(=N/O)c2ccccc2)cc(C(C)(C)C)c1O | inactive: -0.298 | inactive: -1.57 | inactive: -1.96 |
| O=C1[O][Cr]23([NH]C1Cc1cnc[nH]1)([NH]C(Cc1cnc[nH]1)C(=O)[O]2)[NH]C(Cc1cnc[nH]1)C(=O)[O]3 (stereo not drawn) [Chromium histidinate] | inactive: -0.923 | inactive: -0.126 | inactive: 2.28 |
| CN(CCCCCCCCCCN(C)C(=O)Oc1cccc([N+](C)(C)C)c1)C(=O)Oc1cccc([N+](C)(C)C)c1 | inactive: -0.189 | inactive: -0.0884 | inactive: -0.603 |
| OCCN1CCN(CC/C=C2\c3ccccc3Sc3ccc(Cl)cc32)CC1 | inactive: 1.24 | inactive: -1.7 | inactive: 0.159 |
| CC1C(C2C(F)CC(=C(N)O)C3=NC4=C(CC[C@H](C(C)(C)O)C4)C32)CCCC1N1C(=O)C2CCCC(F)C2N(C)C1=O (stereo partly drawn) | inactive: -0.39 |  | inactive: -0.857 |
| N[C@H]1CC[C@H](CNC(=O)[C@@H]2CCCN2C(=O)C2(O)c3ccccc3-c3ccccc32)CC1 | inactive: 2.01 | inactive: -0.798 | inactive: 1.77 |
| CN(C)C/C=C/C(=O)Nc1cc2c(Nc3ccc(F)c(Cl)c3)ncnc2cc1C#C[C@@H]1[C@H]2COC[C@@H]12 | inactive: -2.87 | inactive: -1.06 | inactive: -1.34 |
| Cc1ccc2c(c1)c1c3n2CCNC3CCC1 (stereo not drawn) [pirlindole] | inactive: -1.94 | inactive: 1.5 | inactive: 2.29 |
| OCC(O)C(O)C(O)C(O)CO (stereo not drawn) [mannitol] |  | inactive: -2.09 |  |
| CC(=O)NCCC(=O)NC(Cc1c[nH]cn1)C(=O)O (stereo not drawn) [N-Acetylcarnosine] | inactive: -0.0233 | inactive: -0.548 | inactive: 0.646 |
| CC(C)CN(Cc1ccccc1-c1ccccc1)[C@@H]1C[C@@H](CNC(=O)/C=C/c2ccc(/C=C3\SC(=O)NC3=O)cc2)N(C(=O)c2ccccc2C(=O)c2ccc(F)cc2F)C1 | inactive: -1.37 | inactive: -1.29 | inactive: -0.678 |
| Cc1nn(C)c(NC(=O)Cn2c(C(C)C)nc3ccccc32)c1-c1ccc(Cl)cc1F | inactive: -0.986 | inactive: 0.375 | inactive: 0.721 |
| CCOP(=O)(Cc1ccc(NC(=O)[C@H]2Cc3cc4c(cc3C(=O)[C@H](C)S2)OCO4)cc1)OCC | inactive: -1.36 | inactive: -1.45 | active: 17.8 |
| N#CCNC(=O)c1ccc(-c2ccnc(Nc3ccc(N4CCOCC4)cc3)n2)cc1 [momelotinib] |  | inactive: 0.1 |  |
| N#CCNC(=O)c1ccc(-c2ccnc(Nc3ccc(N4CCOCC4)cc3)n2)cc1 [Momelotinib] | inactive: -1.28 |  | inactive: 1.9 |
| Cc1c(NC(=O)c2cccnc2)c(=O)n(-c2ccccc2)n1C | inactive: 1.05 | inactive: -1.51 | inactive: 0.308 |
| COCC(COC)n1nnc2c(Nc3c(C)cc(C)cc3Cl)nc(C)cc21 | inactive: -0.955 | inactive: 2.14 | active: 5.55 |
| CC/C(=C(\C#N)c1ccc(OCCN(CC)CC)cc1)c1ccc(Cl)cc1 | inactive: -0.635 | inactive: -0.874 | inactive: 2.68 |
| CC(C)C[C@H](NC(=O)[C@H](C)NC(=O)[C@H](CC(=O)O)NC(=O)[C@@H](NC(=O)[C@H](C)NC(=O)[C@H](CCC(=O)O)NC(=O)[C@H](CCC(N)=O)NC(=O)[C@H](CCCNC(=N)N)NC(=O)[C@H](CCCNC(=N)N)NC(=O)[C@H](CC(C)C)NC(=O)[C@H](C)NC(=O)[C@H](CCCCN)NC(=O)[C@@H](N)CCCCN)C(C)C)C(=O)O |  | inactive: 0.358 | inactive: 2.74 |
| CCOC=C1NC(=O)c2nccnc2N1 | inactive: -0.812 | inactive: -0.416 | inactive: 0.51 |
| CO[C@@H]1[C@H](O)[C@@H](CO)O[C@H]1n1cc(C)c(N)nc1=O | inactive: -0.411 | inactive: 1.4 | inactive: 2.54 |
| COCC(=O)NC/C=C/c1ccc2ncnc(Nc3ccc(Oc4ccc(C)nc4)c(C)c3)c2c1 | inactive: -0.545 | inactive: -1.81 | inactive: -0.664 |
| O=c1[nH]c(=O)n(C2CCCO2)cc1F (stereo not drawn) | inactive: 0.0444 | inactive: -0.188 | inactive: -0.958 |
